Reference: PubChem BioAssay AID493014 (National Center for Advancing Translational Sciences (NCATS), 2011)
Hit rate of the full screen: of about 340,000 compounds, about 170 (0.05%) were called active. Inconclusive results, whose numbers are uncertain, are shown with a selection of clear calls. The call rests on the fitted dose curve; in most records, active means well fitted inhibition curve with a large enough effect in the signal ratio, with a control signal flat (not every such curve was filed as active); inconclusive means small, poorly fitted or top-dose-only effect, or effect the other way, or a change in a side signal; inactive means flat fitted curve, though single readings scatter; the % refers to the signal ratio. A potency beside an inconclusive call is a rough fit, not a confirmed value.

Experiment: qHTS Assay to Find Inhibitors of Chronic Active B-Cell Receptor Signaling;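 on activity change, negative = inhibition: plate controls were basal doxycycline-induced cells for no effect and cells given 10 µM MG132 for full effect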
Details: ABC-DLBCL IkBa-CBG/CBR reporter, luminescence ratio (green luciferase fused to IkBa over red control in TMD8 lymphoma cells), 4 h; activity change, negative = inhibition: at 46.1 µM (top of the series)
Method in brief: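 Doxycycline induced both beetle luciferases in TMD8 lymphoma cells; IKK-driven degradation limits the IkappaBalpha-fused green signal, while red luminescence normalises for cell number and nonspecific effects. Compounds tested up to 46 uM, 4 hrs.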
Potency means the concentration at half of the fitted maximal effect.

SMILES | activity change, negative = inhibition | Potency
CC(=O)Cn1cnc2c(cnn2-c2ccc(C)c(C)c2)c1=O | inactive: 8.77% | –
COc1ccccc1NS(=O)(=O)c1cccc(C(=O)N/N=C/c2ccc(N3CCOCC3)cc2)c1 | inactive: 0.963% | –
CCCc1nc2ccc(N)cc2c(=O)n1Cc1ccccc1Cl | inconclusive: -1.86% | –
O=C(COc1ccccc1)NCc1nnc2c3ccccc3c(-c3ccccc3)nn12 | inactive: -3.37% | –
Cc1nc2ccccn2c1C(=O)NC1CCCCC1 | inactive: 1.4% | –
COc1ccc(C(=O)Cn2nnc(-c3cccs3)n2)cc1 | inconclusive: -4.29% | –
CC1=CC(C)(C)Nc2ccccc21 | – | inconclusive: 12.6 µM [falling, partial curve, poor fit]
CCS(=O)(=O)N1CCC(N2CCN(c3ccccc3)CC2)CC1 | inconclusive: -55.8% | –
COc1cc(/C=N/O)ccc1OCc1ccc(Cl)cc1 | – | inconclusive: 35.5 µM [falling, single point]
COc1ccc(C(C)=O)cc1COc1cccc2cccnc12 | inconclusive: -0.866% | –
COc1ccc2c(c1)-c1c(ssc1=S)C(C)(C)N2C(=O)CSC1=NCCS1 | inactive: -7.06% | –
C=CCN(CC=C)c1cnn(-c2nc3ccccc3[nH]2)c(=O)c1Cl | – | inconclusive: 23.1 µM [rising, single point]
CCOc1ccc(NC(=O)c2ccco2)c([N+](=O)[O-])c1 | inconclusive: 3.92% | –
COc1c(C(CC(C)C)OC(C)=O)ccc2c1C(=O)OCc1cc(C)cc(O)c1O2 (stereo unspecified) | inactive: -1.91% | –
CC(C)c1ccc(/C=N/NC(=O)c2nnn(-c3nonc3N)c2CSC2=NCCS2)cc1 | inconclusive: 0.139% | –
CCn1c(SC(C)C(=O)NCC2CCCO2)nc2scc(-c3ccccc3)c2c1=O (stereo unspecified) | inactive: 8.25% | –
CCCC(=O)N1c2ccccc2[C@@H](N(C(C)=O)c2ccccc2)C[C@H]1C | inconclusive: 1.73% | –
Cc1ccc(N(Cc2cc(=O)[nH]c3ccccc23)C(=O)CCl)cc1 | – | inconclusive: 15.8 µM [falling, single point]
Cc1onc(-c2ccccc2)c1C(=O)NC(=S)NNC(=O)c1ccco1 | – | inconclusive: 35.5 µM [falling, single point]
Cc1nn(-c2ccccc2)cc1C(=S)Nc1ccccc1 | inactive: -13.4% | –
CCCc1nc2ccccc2c(C(=O)OCC(=O)Nc2ccc(S(=O)(=O)N3CCOCC3)cc2)c1CC | inconclusive: -9.76% | –
Cn1ncc2c(Nc3ccc4ccccc4c3)ncnc21 | inconclusive: -29.1% | –
COC(=O)[C@]1(C)CCC[C@@]2(C)C3CC[C@]4(OC(C)=O)C[C@@]3(CCC21)CC4=NO (stereo partly specified) | – | inconclusive: 18.4 µM [falling, partial curve, poor fit]
Cc1sc2ncnc(SCC#N)c2c1C | inconclusive: -1.41% | –
CN(C(=O)COC(=O)c1cc(S(=O)(=O)N2CCCCC2)ccc1Cl)c1ccccc1 | inactive: 7.06% | –
C/C(CC(=O)Nc1ccc(OCc2ccccc2)cc1)=N\NC(=O)C(=O)Nc1ccccc1C | – | inconclusive: 4.47 µM [rising, full curve, poor fit]
CCC(=O)NNc1nc2c(C)cc(C)cc2s1 | inactive: -1.47% | –

Complete entries, quoted from the list. Values in the order: activity change, negative = inhibition | Potency
CC(C)c1ccc(/C=N/NC(=O)c2nnn(-c3nonc3N)c2CSC2=NCCS2)cc1 is entered as inconclusive: 0.139% | –
CCn1c(SC(C)C(=O)NCC2CCCO2)nc2scc(-c3ccccc3)c2c1=O (stereo unspecified) is entered as inactive: 8.25% | –
COc1c(C(CC(C)C)OC(C)=O)ccc2c1C(=O)OCc1cc(C)cc(O)c1O2 (stereo unspecified) is entered as inactive: -1.91% | –
COc1ccc(C(=O)Cn2nnc(-c3cccs3)n2)cc1 is entered as inconclusive: -4.29% | –

Going on with the list.

SMILES | activity change, negative = inhibition | Potency
N#C/C(=C\c1cc([N+](=O)[O-])ccc1Cl)C(N)=O | – | inconclusive: 35.5 µM [cytotoxic, single point]
Nc1ccc(N2CCN(CCCCN3C(=O)C4CCCN4C3=O)CC2)cc1 (stereo unspecified) | inactive: -10.7% | –
CC(NCCC1(Cc2ccccc2Cl)CCOC(C)(C)C1)c1cccs1 (stereo unspecified) | inconclusive: -13.1% | –
Cc1csc(NC(=O)CCN2C(=O)c3ccccc3S2(=O)=O)n1 | inconclusive: -11.4% | –
Cc1ccc(Cl)cc1N1CCN(C(c2cccnc2)c2nnnn2C2CCCCC2)CC1 (stereo unspecified) | inconclusive: 4.8% | –
O=C(/C=C\c1cccs1)c1c(O)ccc2ccc(=O)oc12 | – | inconclusive: 18.4 µM [falling, partial curve]
COc1ccc(C2=Nn3c(nnc3-c3ccccc3OC)SC2)cc1OCC1CC1 | – | inconclusive: 4.61 µM [rising, partial curve]
COc1cc([N+](=O)[O-])cc(/C=N/NC(=O)Cn2nc(C)cc2C)c1O | inactive: 5.86% | –
C/C(=N\Nc1ccc([N+](=O)[O-])cc1)c1ccc(N)cc1 | inactive: -1.96% | –
CCOc1ccc(CNC(=O)CCCc2cn(C)c3ccccc23)cc1OC | inconclusive: -5.03% | inconclusive: 5.62 µM [falling, partial curve]
COC(=O)[C@H](Cc1ccccc1)NC(=O)c1cc(COc2c(F)cccc2F)on1 | inactive: 4.5% | –
O=C(O)c1cccc(N/N=C/c2cccs2)c1 | – | inconclusive: 5.8 µM [falling, partial curve]
Cc1onc(-c2ccccc2Cl)c1C(=O)NC(=S)NCc1cccnc1 | inconclusive: -11% | –
CCOC(=O)C1(C)Oc2cccnc2NC1=O (stereo unspecified) | inactive: -1.65% | –
COc1cccc(/C(O)=C/c2nc3ccc(C(=O)NCCc4ccc(Cl)cc4)cc3[nH]c2=O)c1 | – | inconclusive: 18.4 µM [falling, partial curve]
CCOc1ccc(NS(=O)(=O)c2ccc(NC(=O)c3cccnc3)c(OC)c2)cc1 | inconclusive: -22.6% | –
Cc1cccc(NC(=O)CSCC(=O)NCc2cccc(C(F)(F)F)c2)c1 | inconclusive: -1.16% | –
COc1ccc(NC(=O)CSc2nnc(-c3ccccc3)n2Cc2ccco2)c(OC)c1 | inconclusive: 0.45% | –
COc1ccc2ccccc2c1/C=N\NC(=O)c1ccc(C)s1 | inconclusive: -21.8% | –
CNC(=S)N/N=C(\C)c1ccc(Cl)c(Cl)c1 | – | inconclusive: 25.1 µM [falling, single point]
C/C(=N/NC(=O)c1ccc(C)nc1)c1ccc2c(c1)CCCC2 | – | inconclusive: 17.8 µM [falling, partial curve, poor fit]
COc1ccc(NC(=O)n2ncc3c(C)cccc32)cc1 | – | inconclusive: 22.4 µM [falling, partial curve]
CC(=O)n1cc(N(C(=O)CCl)c2ccccc2)c2ccccc21 | – | inconclusive: 35.5 µM [rising, single point]
Cc1ccc(S(=O)(=O)N/N=C/c2ccc3nccnc3c2)cc1 | inconclusive: -15% | –
COc1ccccc1N1CCN(C(=O)c2ccc(Cl)c(S(=O)(=O)NCc3ccco3)c2)CC1 | inactive: -1.7% | –
O=C(c1cccn2c(=O)c3ccccc3nc12)N1CCN(c2ccccn2)CC1 | inconclusive: 0.943% | –
CCOc1ccc(NC(=S)Nc2cc(C)[nH]n2)cc1 | inactive: -0.21% | –

SMILES | activity change, negative = inhibition | Potency
O=C(c1cccc2ccccc12)C1CCCN(C(=O)c2ccc(N3CCOCC3)cc2)C1 (stereo unspecified) | inactive: -23% | –
CC(C)c1ccc2c(c1)C(c1ccc(N3CCOCC3)cc1)=NNC(c1cccs1)=N2 | – | inconclusive: 35.5 µM [falling, single point]
COc1ccc(C(=O)NNC(=O)C(=O)Nc2cccc3ccccc23)cc1 | – | inconclusive: 17.8 µM [falling, partial curve]
CNC(=O)N1CCC(C(=O)c2c(C)c(C)c(C)c(C)c2C)CC1 | inconclusive: 1.78% | –
CCOC(=O)N1CCC(NC(=O)c2cc3sccc3n2CC)CC1 | inconclusive: -0.167% | –
Cc1cc(NC(=O)CSc2nnc(-c3ccc(Br)o3)n2Cc2ccccc2)no1 | inconclusive: -7.75% | –
CCOC(=O)Cc1csc(NC(=O)/C=C/c2ccc(Cl)cc2)n1 | inconclusive: 0.638% | –
CS(=O)(=O)N1N=C(c2cccs2)CC1c1ccccc1O (stereo unspecified) | inconclusive: 1.04% | –
CCCc1ccc2oc(C(=O)N3CCN(c4cnccn4)CC3)c(C)c2c1 | inconclusive: -13.3% | –
COc1ccc(Nc2nccc(-c3cccc(N)c3)n2)cc1 | inconclusive: 3.61% | –
CCN(CCNc1ccc(Cl)cc1[N+](=O)[O-])C(=O)c1cc([N+](=O)[O-])c(N(C)C)cc1OC | inconclusive: -0.42% | –
Cc1cccc(-c2nc3ccccc3c3nncn23)c1 | inactive: 10.2% | –
COC(=O)CC1=NN(c2ccccc2)C(=O)C1 | inconclusive: 1.31% | –
Cc1ccccc1NC(=O)COC(=O)CC1CCCC1 | – | inconclusive: 14.6 µM [falling, partial curve]
Oc1ccccc1C(Nc1nccs1)c1ccc2cccnc2c1O (stereo unspecified) | – | inconclusive: 12.6 µM [falling, single point]
CC(=O)N1CCN=C1SCc1cccc(F)c1 | inactive: 3.49% | –
CCc1ccc(C(c2c(C)nn(-c3ccccc3)c2N)c2c(C)nn(-c3ccccc3)c2N)cc1 | inactive: -2.22% | –
CC(C)N=C1NN=C(c2ccc(Cl)c(Cl)c2)CS1 | – | inconclusive: 22.4 µM [falling, partial curve]
COc1ccccc1C(=O)Nc1ccnn1C1CCN(Cc2cn(C)c3ccccc23)CC1 | inconclusive: -6.07% | –
Cc1ccc(N2CCN(c3ncccc3[N+](=O)[O-])CC2)c(C)c1 | inconclusive: 9.99% | –
COc1ccc(NC(=O)c2nc(C)c(C3(C)CC(c4cccnc4)=NO3)s2)cc1 (stereo unspecified) | – | inconclusive: 20 µM [falling, single point]
c1ccc(CN=C2Nc3ccccc3CS2)nc1 | – | inconclusive: 15.8 µM [falling, partial curve]
O=[N+]([O-])c1cc2oc3c(c2c(C=NCc2ccccc2)c1O)CCCC3 | inactive: 0.347% | –
O=C(NCCc1nc2ccccc2[nH]1)c1ccc(Cl)c([N+](=O)[O-])c1 | – | inconclusive: 16.4 µM [falling, partial curve, poor fit]
COCCN1Cc2cccc(C(=O)Nc3ccc(S(=O)(=O)N4CCCCCC4)cc3)c2C1=O | inconclusive: 7% | –
O=C(Nc1nnc(-c2ccc(Br)cc2)o1)c1ccco1 | – | inconclusive: 3.66 µM [falling, single point]
